Measurements reported in patent US20030176678A1.
These are yes or no findings as the source states them, for the method shown. Some entries that bind do so weakly or less than the wild type. Tags and fused reporters may be left off the sequences shown.

Amino acid sequences for entries named in this document (tags omitted). A change or cut given only in a name is not applied to a line headed by its entry.
UniProt P04386: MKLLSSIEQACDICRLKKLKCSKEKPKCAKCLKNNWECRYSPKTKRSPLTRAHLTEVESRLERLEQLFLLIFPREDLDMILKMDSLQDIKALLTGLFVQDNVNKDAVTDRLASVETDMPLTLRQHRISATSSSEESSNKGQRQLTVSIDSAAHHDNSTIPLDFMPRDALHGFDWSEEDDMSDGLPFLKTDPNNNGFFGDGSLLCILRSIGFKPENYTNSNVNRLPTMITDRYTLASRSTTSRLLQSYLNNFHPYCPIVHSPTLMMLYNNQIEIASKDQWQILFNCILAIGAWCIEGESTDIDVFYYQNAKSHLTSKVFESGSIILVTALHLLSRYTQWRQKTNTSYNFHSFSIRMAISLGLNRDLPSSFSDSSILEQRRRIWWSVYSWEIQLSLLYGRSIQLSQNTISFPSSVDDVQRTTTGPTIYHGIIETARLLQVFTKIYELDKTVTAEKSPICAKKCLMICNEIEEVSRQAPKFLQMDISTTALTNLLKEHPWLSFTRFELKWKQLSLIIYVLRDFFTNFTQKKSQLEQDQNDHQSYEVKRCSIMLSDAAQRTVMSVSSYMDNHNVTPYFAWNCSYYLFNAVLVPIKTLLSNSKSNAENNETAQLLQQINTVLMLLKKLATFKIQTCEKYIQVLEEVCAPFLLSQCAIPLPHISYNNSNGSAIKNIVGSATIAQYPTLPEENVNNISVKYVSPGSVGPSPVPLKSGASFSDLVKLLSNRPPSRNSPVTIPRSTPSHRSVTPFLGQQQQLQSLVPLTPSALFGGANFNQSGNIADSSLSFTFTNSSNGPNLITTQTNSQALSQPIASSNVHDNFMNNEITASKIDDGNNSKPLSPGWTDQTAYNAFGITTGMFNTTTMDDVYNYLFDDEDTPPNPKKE
UniProt P17181: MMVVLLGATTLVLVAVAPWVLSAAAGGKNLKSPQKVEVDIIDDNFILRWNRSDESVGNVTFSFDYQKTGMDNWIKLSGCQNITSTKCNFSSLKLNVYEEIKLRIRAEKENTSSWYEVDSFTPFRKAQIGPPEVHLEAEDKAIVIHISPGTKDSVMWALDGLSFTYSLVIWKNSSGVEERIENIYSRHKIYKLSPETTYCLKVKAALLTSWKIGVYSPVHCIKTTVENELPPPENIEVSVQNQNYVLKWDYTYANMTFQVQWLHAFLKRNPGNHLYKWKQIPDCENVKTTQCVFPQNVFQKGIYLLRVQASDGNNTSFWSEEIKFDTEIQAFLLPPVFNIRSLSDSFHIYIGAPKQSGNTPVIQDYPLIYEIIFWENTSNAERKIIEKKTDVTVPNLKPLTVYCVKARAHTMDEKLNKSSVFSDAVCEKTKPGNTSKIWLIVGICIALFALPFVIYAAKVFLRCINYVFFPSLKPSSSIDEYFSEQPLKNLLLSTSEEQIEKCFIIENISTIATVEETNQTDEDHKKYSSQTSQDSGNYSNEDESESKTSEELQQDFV

Assays:
[1] = target: T1, IFNAR1-IC domain fused to the Gal4 DNA binding domain (pGBT10-IFNAR1-IC) (human) (UniProt P04386+P17181); assay: yeast two-hybrid
[2] = target: T1, IFNAR1-IC domain fused to the Gal4 DNA binding domain (pGBT10-IFNAR1-IC) (human); assay: yeast two-hybrid in SFY526, X-gal staining positive

B1: IR1B1 fused to the Gal4 activation domain (pACT clone IR1B1) (protein, not shown: large carriers; small tags and cut ends)
chain: MGGSGSRLSKELLAEYQDLTFLTKQEILLAHRRFCELLPQEQRSVESSLRAQVPFEQILSLPELKANPFKERICRVFSTSPAKDSLSFEDFLDLLSVFSDTATPDIKSHYAFRIFDFDDDGTLNREDLSRLVNCLTGEGEDTRLSASEMKQLIDYILEESDIDRDGTINLSEFQHVISRSPDFASSFKIVL
Question: Which results are given for B1?
Answer: binding [1]: binds; binding [2]: binds
